Measurements published in the supplement of paper PMC5836539.
± gives the standard deviation of the averaged measurements. Most values lie within the scatter of the assay; repeated measurements hardly agree.

The chains behind the UniProt entries cited, without tags or fusion partners. Where a name states a change or a piece, a line headed by the entry shows the natural chain unless it says otherwise.
UniProt Q5VZK9, whole entry, looked up: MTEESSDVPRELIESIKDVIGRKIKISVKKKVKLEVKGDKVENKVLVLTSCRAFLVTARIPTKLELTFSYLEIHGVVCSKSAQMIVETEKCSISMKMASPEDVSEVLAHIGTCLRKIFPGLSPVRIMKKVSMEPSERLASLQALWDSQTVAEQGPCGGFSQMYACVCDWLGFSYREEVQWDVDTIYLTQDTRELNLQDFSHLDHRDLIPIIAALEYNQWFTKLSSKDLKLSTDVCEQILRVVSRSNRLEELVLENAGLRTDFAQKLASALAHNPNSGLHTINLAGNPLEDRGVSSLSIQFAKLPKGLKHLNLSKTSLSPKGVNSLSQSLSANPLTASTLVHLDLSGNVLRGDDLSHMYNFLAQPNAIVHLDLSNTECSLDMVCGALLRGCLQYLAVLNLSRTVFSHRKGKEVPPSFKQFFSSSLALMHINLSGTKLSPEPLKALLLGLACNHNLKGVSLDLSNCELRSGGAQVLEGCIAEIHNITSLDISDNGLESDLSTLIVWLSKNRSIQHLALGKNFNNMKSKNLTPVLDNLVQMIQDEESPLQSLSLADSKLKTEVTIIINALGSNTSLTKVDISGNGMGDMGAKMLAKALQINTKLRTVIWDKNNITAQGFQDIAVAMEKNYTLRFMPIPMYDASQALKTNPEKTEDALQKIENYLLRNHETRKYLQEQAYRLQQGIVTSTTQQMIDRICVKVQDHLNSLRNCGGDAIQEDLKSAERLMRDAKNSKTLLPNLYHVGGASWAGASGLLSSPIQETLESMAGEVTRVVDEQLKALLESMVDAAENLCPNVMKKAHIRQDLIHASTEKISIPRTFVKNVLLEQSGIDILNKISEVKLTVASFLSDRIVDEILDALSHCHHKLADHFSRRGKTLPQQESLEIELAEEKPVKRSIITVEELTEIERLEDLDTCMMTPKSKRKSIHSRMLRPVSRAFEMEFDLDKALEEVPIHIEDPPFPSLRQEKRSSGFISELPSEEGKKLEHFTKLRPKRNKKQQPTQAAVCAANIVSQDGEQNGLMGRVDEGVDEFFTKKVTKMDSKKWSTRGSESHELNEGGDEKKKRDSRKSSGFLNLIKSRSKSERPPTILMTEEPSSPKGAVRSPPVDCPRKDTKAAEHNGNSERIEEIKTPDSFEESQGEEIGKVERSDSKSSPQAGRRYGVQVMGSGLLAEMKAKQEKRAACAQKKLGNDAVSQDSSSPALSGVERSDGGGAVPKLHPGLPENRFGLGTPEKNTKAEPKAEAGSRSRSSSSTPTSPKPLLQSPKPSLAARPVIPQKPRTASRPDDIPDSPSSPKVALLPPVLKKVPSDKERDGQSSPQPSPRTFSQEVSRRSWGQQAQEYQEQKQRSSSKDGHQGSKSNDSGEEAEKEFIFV
UniProt Q6NZI2: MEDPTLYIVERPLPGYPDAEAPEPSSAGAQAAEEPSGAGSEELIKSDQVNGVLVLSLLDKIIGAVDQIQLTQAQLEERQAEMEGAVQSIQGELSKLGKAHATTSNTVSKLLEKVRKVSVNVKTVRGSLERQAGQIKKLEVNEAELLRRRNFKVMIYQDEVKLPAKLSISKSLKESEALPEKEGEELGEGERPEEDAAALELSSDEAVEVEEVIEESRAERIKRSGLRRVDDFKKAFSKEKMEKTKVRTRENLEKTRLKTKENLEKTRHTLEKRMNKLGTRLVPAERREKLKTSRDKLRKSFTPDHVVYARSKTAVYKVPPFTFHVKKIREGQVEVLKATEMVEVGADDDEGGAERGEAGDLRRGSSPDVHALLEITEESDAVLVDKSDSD
UniProt Q6ZSR9: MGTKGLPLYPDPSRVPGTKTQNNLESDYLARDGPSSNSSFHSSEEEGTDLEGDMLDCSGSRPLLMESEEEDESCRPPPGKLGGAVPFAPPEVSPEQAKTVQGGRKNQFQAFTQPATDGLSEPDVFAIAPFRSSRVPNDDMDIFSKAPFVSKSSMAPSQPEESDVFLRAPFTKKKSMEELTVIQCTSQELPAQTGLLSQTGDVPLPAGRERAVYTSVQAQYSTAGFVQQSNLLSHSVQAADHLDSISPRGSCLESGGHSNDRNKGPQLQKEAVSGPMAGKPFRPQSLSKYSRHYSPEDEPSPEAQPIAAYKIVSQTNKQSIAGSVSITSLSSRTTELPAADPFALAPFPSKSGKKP
UniProt Q7Z6Z7, whole entry, looked up: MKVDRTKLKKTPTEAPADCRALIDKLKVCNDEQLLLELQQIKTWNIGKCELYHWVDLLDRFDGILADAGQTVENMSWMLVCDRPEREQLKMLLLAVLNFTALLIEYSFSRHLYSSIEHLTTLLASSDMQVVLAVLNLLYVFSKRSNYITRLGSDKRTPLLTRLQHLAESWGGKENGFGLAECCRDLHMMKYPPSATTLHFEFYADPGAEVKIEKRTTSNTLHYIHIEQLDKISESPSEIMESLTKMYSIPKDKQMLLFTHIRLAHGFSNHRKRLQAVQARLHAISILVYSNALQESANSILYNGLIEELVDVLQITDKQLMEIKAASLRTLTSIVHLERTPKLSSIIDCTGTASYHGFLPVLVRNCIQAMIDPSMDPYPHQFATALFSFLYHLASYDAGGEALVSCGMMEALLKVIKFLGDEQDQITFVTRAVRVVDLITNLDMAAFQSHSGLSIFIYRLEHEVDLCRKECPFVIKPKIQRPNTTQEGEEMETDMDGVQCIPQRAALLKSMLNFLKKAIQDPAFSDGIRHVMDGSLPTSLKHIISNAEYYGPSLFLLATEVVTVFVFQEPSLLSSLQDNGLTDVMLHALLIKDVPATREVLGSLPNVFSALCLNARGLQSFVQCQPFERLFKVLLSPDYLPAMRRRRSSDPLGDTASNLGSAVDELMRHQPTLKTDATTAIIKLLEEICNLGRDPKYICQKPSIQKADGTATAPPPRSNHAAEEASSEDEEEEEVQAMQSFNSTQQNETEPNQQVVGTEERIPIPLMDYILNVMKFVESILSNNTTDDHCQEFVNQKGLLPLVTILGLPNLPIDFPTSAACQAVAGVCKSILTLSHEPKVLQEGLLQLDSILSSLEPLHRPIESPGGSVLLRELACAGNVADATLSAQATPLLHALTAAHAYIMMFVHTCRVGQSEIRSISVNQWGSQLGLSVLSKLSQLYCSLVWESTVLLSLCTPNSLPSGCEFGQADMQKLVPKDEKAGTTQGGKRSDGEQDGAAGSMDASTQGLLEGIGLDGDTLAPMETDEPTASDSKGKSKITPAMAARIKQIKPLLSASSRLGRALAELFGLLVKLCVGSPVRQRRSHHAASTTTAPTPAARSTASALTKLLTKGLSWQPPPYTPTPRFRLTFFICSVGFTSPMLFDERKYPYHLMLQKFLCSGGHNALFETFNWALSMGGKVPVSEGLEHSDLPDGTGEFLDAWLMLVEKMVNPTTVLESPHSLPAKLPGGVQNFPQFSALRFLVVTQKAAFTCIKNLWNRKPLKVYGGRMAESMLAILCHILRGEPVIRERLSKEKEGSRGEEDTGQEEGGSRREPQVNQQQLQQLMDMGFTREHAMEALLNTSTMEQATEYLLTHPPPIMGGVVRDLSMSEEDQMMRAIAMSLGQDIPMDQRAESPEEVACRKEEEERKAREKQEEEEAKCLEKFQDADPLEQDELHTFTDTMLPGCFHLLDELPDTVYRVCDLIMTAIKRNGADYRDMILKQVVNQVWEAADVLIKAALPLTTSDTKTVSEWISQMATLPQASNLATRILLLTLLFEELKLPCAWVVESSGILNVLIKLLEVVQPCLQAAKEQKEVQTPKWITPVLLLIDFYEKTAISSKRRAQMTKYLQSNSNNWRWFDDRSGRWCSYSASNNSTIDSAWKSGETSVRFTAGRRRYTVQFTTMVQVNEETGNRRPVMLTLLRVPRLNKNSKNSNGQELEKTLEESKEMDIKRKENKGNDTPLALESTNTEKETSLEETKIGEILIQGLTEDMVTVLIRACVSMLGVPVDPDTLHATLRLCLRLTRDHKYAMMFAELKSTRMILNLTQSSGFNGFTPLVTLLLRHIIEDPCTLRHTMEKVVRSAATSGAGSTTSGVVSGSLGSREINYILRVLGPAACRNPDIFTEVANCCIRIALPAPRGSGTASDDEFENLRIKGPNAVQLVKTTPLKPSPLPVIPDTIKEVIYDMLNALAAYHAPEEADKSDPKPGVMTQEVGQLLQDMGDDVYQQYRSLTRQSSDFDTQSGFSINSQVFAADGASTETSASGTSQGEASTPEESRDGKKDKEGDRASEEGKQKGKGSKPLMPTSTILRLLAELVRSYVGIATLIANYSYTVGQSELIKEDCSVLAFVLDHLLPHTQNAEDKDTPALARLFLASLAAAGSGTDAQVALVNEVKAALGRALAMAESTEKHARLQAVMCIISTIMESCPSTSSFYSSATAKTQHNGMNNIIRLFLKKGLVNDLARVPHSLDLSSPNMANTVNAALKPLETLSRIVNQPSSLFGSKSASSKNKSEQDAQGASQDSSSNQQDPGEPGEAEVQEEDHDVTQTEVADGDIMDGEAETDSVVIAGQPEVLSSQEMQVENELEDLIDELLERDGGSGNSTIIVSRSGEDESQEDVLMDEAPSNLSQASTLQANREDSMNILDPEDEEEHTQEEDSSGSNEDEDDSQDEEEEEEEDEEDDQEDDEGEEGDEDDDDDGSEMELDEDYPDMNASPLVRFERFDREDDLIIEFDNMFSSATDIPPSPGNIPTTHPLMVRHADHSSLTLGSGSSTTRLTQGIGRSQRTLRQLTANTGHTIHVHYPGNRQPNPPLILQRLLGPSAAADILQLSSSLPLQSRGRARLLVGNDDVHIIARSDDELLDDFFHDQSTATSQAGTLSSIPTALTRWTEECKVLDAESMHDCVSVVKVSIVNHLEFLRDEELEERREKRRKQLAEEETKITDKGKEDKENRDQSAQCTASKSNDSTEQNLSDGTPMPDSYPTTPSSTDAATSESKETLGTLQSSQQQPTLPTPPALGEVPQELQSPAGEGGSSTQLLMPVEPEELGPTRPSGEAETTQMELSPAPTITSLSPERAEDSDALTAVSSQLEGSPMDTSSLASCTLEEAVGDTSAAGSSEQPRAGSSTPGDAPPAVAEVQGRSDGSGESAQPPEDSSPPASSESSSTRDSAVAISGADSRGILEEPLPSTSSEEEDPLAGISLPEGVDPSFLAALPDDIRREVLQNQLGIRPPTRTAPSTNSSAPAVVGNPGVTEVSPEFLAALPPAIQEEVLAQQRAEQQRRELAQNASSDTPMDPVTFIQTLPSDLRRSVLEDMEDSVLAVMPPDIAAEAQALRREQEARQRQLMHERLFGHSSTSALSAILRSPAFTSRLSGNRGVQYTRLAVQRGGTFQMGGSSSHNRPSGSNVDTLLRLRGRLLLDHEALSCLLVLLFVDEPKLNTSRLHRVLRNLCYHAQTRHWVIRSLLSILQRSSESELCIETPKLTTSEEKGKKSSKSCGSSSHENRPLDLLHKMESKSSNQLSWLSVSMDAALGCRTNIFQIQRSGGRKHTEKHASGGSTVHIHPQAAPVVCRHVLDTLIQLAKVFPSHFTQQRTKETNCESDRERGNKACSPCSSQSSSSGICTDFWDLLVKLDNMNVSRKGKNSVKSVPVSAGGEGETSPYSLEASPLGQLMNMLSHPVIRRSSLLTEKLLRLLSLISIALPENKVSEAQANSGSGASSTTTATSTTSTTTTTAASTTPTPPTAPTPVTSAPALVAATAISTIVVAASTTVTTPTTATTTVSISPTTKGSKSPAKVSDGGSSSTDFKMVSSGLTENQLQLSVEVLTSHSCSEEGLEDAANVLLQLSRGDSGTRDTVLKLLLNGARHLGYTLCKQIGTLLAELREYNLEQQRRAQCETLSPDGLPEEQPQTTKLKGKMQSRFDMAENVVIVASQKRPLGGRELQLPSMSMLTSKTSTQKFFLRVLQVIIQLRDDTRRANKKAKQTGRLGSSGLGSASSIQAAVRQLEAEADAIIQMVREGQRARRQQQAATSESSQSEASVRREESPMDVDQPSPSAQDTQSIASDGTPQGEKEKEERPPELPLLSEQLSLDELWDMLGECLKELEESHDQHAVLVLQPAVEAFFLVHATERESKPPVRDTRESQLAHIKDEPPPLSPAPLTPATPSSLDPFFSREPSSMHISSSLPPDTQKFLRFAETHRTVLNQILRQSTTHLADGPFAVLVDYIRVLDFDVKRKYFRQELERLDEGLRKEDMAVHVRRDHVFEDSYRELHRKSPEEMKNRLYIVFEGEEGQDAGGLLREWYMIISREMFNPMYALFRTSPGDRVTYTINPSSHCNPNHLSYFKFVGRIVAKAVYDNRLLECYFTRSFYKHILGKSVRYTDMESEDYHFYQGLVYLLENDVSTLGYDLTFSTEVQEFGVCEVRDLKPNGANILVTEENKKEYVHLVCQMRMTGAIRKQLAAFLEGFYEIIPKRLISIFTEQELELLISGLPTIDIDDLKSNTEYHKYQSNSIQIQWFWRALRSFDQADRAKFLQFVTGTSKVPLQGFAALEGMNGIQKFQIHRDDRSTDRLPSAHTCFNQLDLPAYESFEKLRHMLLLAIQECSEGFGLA

compound: CC[C@@H](C)Nc1cc(C(=O)N[C@H]2C[C@H]3CC[C@@H](C2)N3c2ccc(C(=O)C3CC3)cn2)c(C)cc1C(N)=O [XL888]; assay: phosphopeptide melting temperature shift (XL888 minus DMSO); higher = stabilised by drug treatment; conditions: 100 µM; treatment time 2 h; layout: intact cells; SK-Mel 28
Experimental: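 Phospho-TPP in intact SK-Mel 28 cells treated with 100 uM XL888 or DMSO for 2 h, heated at 10 temperatures (37-67 C) for 3 min, soluble fraction TMT10plex-labelled and TiO2 phospho-enriched. Melting curves were fitted per phosphopeptide; the value is the melting point difference (drug minus vehicle) in each of two biological replicates.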

Target	phosphopeptide melting temperature shift [°C]
UniProt Q5VZK9-2_phosphosite_916 (phosphosite position: 916)	0.0893 ± 0.75
UniProt Q5VZK9-2_phosphosite_1270 (phosphosite position: 1270)	4.99
UniProt Q5VZK9-2_phosphosite_1286 (phosphosite position: 1286)	0.395
UniProt Q5XUX1-3_phosphosite_18 (phosphosite position: 18)	2.33
UniProt Q6GYQ0-3_phosphosite_907 (phosphosite position: 907)	0.992 ± 0.17
UniProt Q6GYQ0-3_phosphosite_908 (phosphosite position: 908)	1.12
UniProt Q6ICG6-3_phosphosite_270 (phosphosite position: 270)	0.598 ± 1.6
UniProt Q6ICG6-3_phosphosite_290 (phosphosite position: 290)	1.52 ± 0.81
UniProt Q6IN85-2_phosphosite_117 (phosphosite position: 117)	0.477
UniProt Q6NYC8_phosphosite_432 (phosphosite position: 432)	-0.653 ± 0.41
UniProt Q6NZI2_phosphosite_202 (phosphosite position: 202)	1.71 ± 1.6
UniProt Q6NZI2_phosphosite_203 (phosphosite position: 203)	1.71 ± 1.6
UniProt Q6NZI2_phosphosite_366 (phosphosite position: 366)	0.435
UniProt Q6NZI2_phosphosite_376 (phosphosite position: 376)	2.34
UniProt Q6P1L5-2_phosphosite_136 (phosphosite position: 136)	-1.47
UniProt Q6P158-3_phosphosite_25 (phosphosite position: 25)	-0.574
UniProt Q6PD74-2_phosphosite_201 (phosphosite position: 201)	0.435 ± 2.5
UniProt Q6PD74-2_phosphosite_202 (phosphosite position: 202)	0.435 ± 2.5
UniProt Q6PFW1-7_phosphosite_1085 (phosphosite position: 1085)	0.667 ± 0.53
UniProt Q6UUV7-3_phosphosite_443 (phosphosite position: 443)	1.52 ± 2.4
UniProt Q6UUV9-3_phosphosite_64 (phosphosite position: 64)	-0.29
UniProt Q6VMQ6-2_phosphosite_113 (phosphosite position: 113)	0.905
UniProt Q6VMQ6-2_phosphosite_556 (phosphosite position: 556)	1.12
UniProt Q6XQN6-3_phosphosite_524 (phosphosite position: 524)	-0.795
UniProt Q6ZSR9_phosphosite_93 (phosphosite position: 93)	-0.432 ± 0.13
UniProt Q6ZSZ5-2_phosphosite_966 (phosphosite position: 966)	0.273

Target	phosphopeptide melting temperature shift [°C]
UniProt Q7Z3E5-2_phosphosite_582 (phosphosite position: 582)	1.65 ± 0.38
UniProt Q7Z3U7-3_phosphosite_89 (phosphosite position: 89)	0.819 ± 0.38
UniProt Q7Z6E9-2_phosphosite_950 (phosphosite position: 950)	0.273
UniProt Q7Z6E9-2_phosphosite_1145 (phosphosite position: 1145)	1.18 ± 1.1
UniProt Q7Z6Z7-2_phosphosite_3646 (phosphosite position: 3646)	5.15
UniProt Q7Z6Z7-2_phosphosite_3800 (phosphosite position: 3800)	0.972
UniProt Q7Z6Z7-2_phosphosite_3903 (phosphosite position: 3903)	0.221 ± 0.34
UniProt Q7Z6Z7-2_phosphosite_3908 (phosphosite position: 3908)	0.526 ± 0.57
UniProt Q7Z460-2_phosphosite_600 (phosphosite position: 600)	1.33
UniProt Q7Z460-2_phosphosite_646 (phosphosite position: 646)	-2.09
UniProt Q08AD1-2_phosphosite_437 (phosphosite position: 437)	-0.737 ± 0.44
UniProt Q8IVL1-5_phosphosite_184 (phosphosite position: 184)	-0.788
UniProt Q8IW50-3_phosphosite_87 (phosphosite position: 87)	1.57 ± 0.66
UniProt Q8IWQ3-4_phosphosite_294 (phosphosite position: 294)	1.25 ± 0.76
UniProt Q8IWS0-2_phosphosite_156 (phosphosite position: 156)	2.7 ± 2.6
UniProt Q8IWZ8_phosphosite_485 (phosphosite position: 485)	-0.355
UniProt Q8IZ21-3_phosphosite_342 (phosphosite position: 342)	1.16
UniProt Q8N4C8-4_phosphosite_743 (phosphosite position: 743)	1.43
UniProt Q8N4C8-4_phosphosite_758 (phosphosite position: 758)	1.48
UniProt Q8N4S0-2_phosphosite_131 (phosphosite position: 131)	2.57
UniProt Q8N9B5-2_phosphosite_713 (phosphosite position: 713)	0.686 ± 1.2
UniProt Q8N122-3_phosphosite_705 (phosphosite position: 705)	1.07 ± 1.7
UniProt Q8N122-3_phosphosite_719 (phosphosite position: 719)	1.18 ± 2.1
UniProt Q8N163-2_phosphosite_675 (phosphosite position: 675)	0.455
UniProt Q8N163-2_phosphosite_678 (phosphosite position: 678)	0.455
UniProt Q8N163-2_phosphosite_681 (phosphosite position: 681)	0.455

An excerpt of these results, bar-delimited.
Target | phosphopeptide melting temperature shift [°C]
UniProt Q6GYQ0-3_phosphosite_907 (phosphosite position: 907) | 0.992 ± 0.17
UniProt Q6NYC8_phosphosite_432 (phosphosite position: 432) | -0.653 ± 0.41
UniProt Q6NZI2_phosphosite_202 (phosphosite position: 202) | 1.71 ± 1.6
UniProt Q6NZI2_phosphosite_376 (phosphosite position: 376) | 2.34
UniProt Q7Z6Z7-2_phosphosite_3800 (phosphosite position: 3800) | 0.972

(cont.)

Target	phosphopeptide melting temperature shift [°C]
UniProt Q8N264-3_phosphosite_320 (phosphosite position: 320)	1.38
UniProt Q8NBN3-3_phosphosite_479 (phosphosite position: 479)	1.52
UniProt Q8NC51-3_phosphosite_237 (phosphosite position: 237)	2.29 ± 1.3
UniProt Q8NC51-3_phosphosite_240 (phosphosite position: 240)	1.27 ± 3.2
UniProt Q8NDI1-3_phosphosite_300 (phosphosite position: 300)	0.558 ± 0.61
UniProt Q8NDI1-3_phosphosite_401 (phosphosite position: 401)	-0.126 ± 0.021
UniProt Q8NFC6_phosphosite_482 (phosphosite position: 482)	3.32 ± 1
UniProt Q8NFC6_phosphosite_2779 (phosphosite position: 2779)	2.04
UniProt Q8NFC6_phosphosite_2780 (phosphosite position: 2780)	2.04
UniProt Q8NG27-3_phosphosite_222 (phosphosite position: 222)	1.49
UniProt Q8TAP6-2_phosphosite_83 (phosphosite position: 83)	-0.217
UniProt Q8TAP9_phosphosite_133 (phosphosite position: 133)	7.1
UniProt Q8TB72-4_phosphosite_80 (phosphosite position: 80)	-1.23
UniProt Q8TBA6-2_phosphosite_116 (phosphosite position: 116)	-1.15
UniProt Q8TD55-2_phosphosite_314 (phosphosite position: 314)	0.412
UniProt Q8TDJ6-2_phosphosite_473 (phosphosite position: 473)	2.17
UniProt Q8TDJ6-2_phosphosite_1348 (phosphosite position: 1348)	1.87 ± 0.84
UniProt Q8TDJ6-2_phosphosite_1763 (phosphosite position: 1763)	-1.05
UniProt Q8TDZ2-2_phosphosite_786 (phosphosite position: 786)	1.14 ± 0.91
UniProt Q8TDZ2-2_phosphosite_789 (phosphosite position: 789)	1.59 ± 0.27
UniProt Q8TDZ2-2_phosphosite_790 (phosphosite position: 790)	1.59 ± 0.27
UniProt Q8TE77-4_phosphosite_87 (phosphosite position: 87)	3.79
UniProt Q8TF01_phosphosite_211 (phosphosite position: 211)	-0.559
UniProt Q8WU79-3_phosphosite_139 (phosphosite position: 139)	-1.07
